# Cell number after 72 h of treatment

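Human melanoma cell lines in 1,536-well plates were treated with one drug for 72 h, then fixed, stained and imaged. Values are the number of DAPI-stained nuclei as a percentage of the DMSO control: 100 is no effect, lower means fewer cells. Every drug was used at one fixed concentration, the higher of two screened. These are primary screening values without error estimates.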
This is part of the screen, not chosen by result.
An entry leaves out what has no value listed here.
A dash means that no value is listed here.

* C=CCn1c(=O)c2cnc(Nc3ccc(N4CCN(C)CC4)cc3)nc2n1-c1cccc(C(C)(C)O)n1 at 0.1 µM | SK-MEL-28: 44.4; WM451Lu: 102; SK-MEL-30: 82.8; MZ2-MEL: 124; COLO 829: 90.6; A101D: 61.2; WM3619: 39.4
* CNC(=O)c1cc(Oc2ccc(NC(=O)Nc3ccc(Cl)c(C(F)(F)F)c3)cc2)ccn1 at 2 µM | SK-MEL-28: 143; WM451Lu: 118; SK-MEL-30: 131; MZ2-MEL: 111; COLO 829: 118; A101D: 90.2; WM3619: 101
* CCN(CC)CCCCNc1ncc2cc(-c3cc(OC)cc(OC)c3)c(NC(=O)NC(C)(C)C)nc2n1 at 0.5 µM | SK-MEL-28: 115; WM451Lu: 95.2; SK-MEL-30: 107; MZ2-MEL: 84.4; COLO 829: 86.4; A101D: 108; 501mel: 89.3; WM3619: 86.7
* COc1ccc2c(c1)CCC1C2CCC2(C)C(NCCCCCCN3C(=O)C=CC3=O)CCC12 (stereo not given) at 2 µM | SK-MEL-28: 94.0; WM451Lu: 107; SK-MEL-30: 93.6; MZ2-MEL: 101; COLO 829: 89.8; A101D: 71.9; 501mel: 88.5; WM3619: 56.6
* O=c1cc(-c2cccc3c2Sc2ccccc2S3)oc(N2CCOCC2)c1 at 5 µM | SK-MEL-28: 88.9; WM451Lu: 81.7; SK-MEL-30: 99.5; MZ2-MEL: 103; COLO 829: 97.1; A101D: 73.4; 501mel: 94.0; WM3619: 98.4
* Cc1cc([N+](=O)[O-])ccc1NS(=O)(=O)c1cc(Cl)ccc1Cl at 5 µM | SK-MEL-28: 40.5; WM451Lu: 80.1; SK-MEL-30: 96.3; MZ2-MEL: 67.4; COLO 829: 81.8; A101D: 65.5; 501mel: 77.9; WM3619: 83.4
* N#CC[C@H](C1CCCC1)n1cc(-c2ncnc3[nH]ccc23)cn1 at 5 µM | SK-MEL-28: 95.3; WM451Lu: 119; SK-MEL-30: 109; MZ2-MEL: 103; COLO 829: 107; A101D: 97.8; WM3619: 117
* O=C(Nc1cccc(Cl)c1)Nc1ncc(CCNc2ncnc3ccsc23)s1 at 0.004 µM | SK-MEL-28: 38.4; WM451Lu: 56.8; SK-MEL-30: 91.4; MZ2-MEL: 75.3; COLO 829: 81.1; A101D: 77.6; WM3619: 65.5
* C[C@@H](Oc1cc(-c2cnn(C3CCNCC3)c2)cnc1N)c1c(Cl)ccc(F)c1Cl at 1 µM | SK-MEL-28: 50.4; WM451Lu: 114; SK-MEL-30: 73.7; MZ2-MEL: 86.6; COLO 829: 87.3; A101D: 81.8; WM3619: 71.1
* C[C@]1(O)C[C@@H](c2nc(-c3ccc4ccc(-c5ccccc5)nc4c3)c3c(N)nccn32)C1 at 2 µM | SK-MEL-28: 103; WM451Lu: 103; SK-MEL-30: 86.6; MZ2-MEL: 89.3; COLO 829: 109; A101D: 87.7; WM3619: 83.5
* COc1cc(N2CCC(N3CCN(C)CC3)CC2)ccc1Nc1ncc(Cl)c(Nc2ccccc2S(=O)(=O)C(C)C)n1 at 0.4 µM | SK-MEL-28: 79.5; WM451Lu: 86.7; SK-MEL-30: 115; MZ2-MEL: 85.1; COLO 829: 94.5; A101D: 84.8; 501mel: 97.5; WM3619: 102
* Oc1nc(-c2ccc(C(F)(F)F)cc2)nc2c1CSCC2 at 10 µM | SK-MEL-28: 75.6; WM451Lu: 103; SK-MEL-30: 80.4; MZ2-MEL: 84.7; COLO 829: 132; A101D: 73.5; 501mel: 98.8; WM3619: 88.4
* O=C(Nc1ccccc1)c1cc([N+](=O)[O-])ccc1Cl at 10 µM | SK-MEL-28: 74.0; WM451Lu: 117; SK-MEL-30: 95.3; MZ2-MEL: 82.7; COLO 829: 61.3; A101D: 65.0; 501mel: 88.2; WM3619: 67.4
* COC(=O)c1sccc1S(=O)(=O)Nc1ccc(Nc2ccccc2)cc1OC at 5 µM | SK-MEL-28: 76.3; WM451Lu: 93.5; SK-MEL-30: 96.7; MZ2-MEL: 84.2; COLO 829: 101; A101D: 91.0; 501mel: 110; WM3619: 79.5
* NC1(c2ccc(-c3nc4ccn5c(=O)[nH]nc5c4cc3-c3ccccc3)cc2)CCC1 at 2 µM | SK-MEL-28: 38.6; WM451Lu: 72.1; SK-MEL-30: 69.9; MZ2-MEL: 69.9; COLO 829: 69.2; A101D: 70.9; WM3619: 65.2
* Clc1ccc(Nc2nnc(Cc3ccncc3)c3ccccc23)cc1 at 10 µM | SK-MEL-28: 102; WM451Lu: 59.9; SK-MEL-30: 81.9; MZ2-MEL: 71.7; COLO 829: 60.2; A101D: 76.8; WM3619: 53.9
* CCCS(=O)(=O)Nc1ccc(F)c(C(=O)c2c[nH]c3ncc(Cl)cc23)c1F at 0.4 µM | SK-MEL-28: 62.0; WM451Lu: 64.3; SK-MEL-30: 83.5; MZ2-MEL: 80.3; COLO 829: 65.9; A101D: 66.3; WM3619: 116
* OCCn1cc(-c2cnc3nnn(Cc4ccc5ncccc5c4)c3n2)cn1 at 5 µM | SK-MEL-28: 99.6; WM451Lu: 93.2; SK-MEL-30: 94.5; MZ2-MEL: 126; COLO 829: 99.9; A101D: 119; WM3619: 104
* Cc1cc(N2CCOCC2)cc2[nH]c(-c3c(NC[C@@H](O)c4cccc(Cl)c4)cc[nH]c3=O)nc12 at 1 µM | SK-MEL-28: 63.9; WM451Lu: 106; SK-MEL-30: 90.3; MZ2-MEL: 102; COLO 829: 86.8; A101D: 105; WM3619: 77.1
* CC1(C)NC(=O)N(c2ccc([N+](=O)[O-])c(C(F)(F)F)c2)C1=O at 5 µM | SK-MEL-28: 139; WM451Lu: 121; SK-MEL-30: 125; MZ2-MEL: 126; COLO 829: 130; A101D: 131; WM3619: 181
* CO[C@H]1C[C@@H]2CC[C@@H](C)[C@@](O)(O2)C(=O)C(=O)N2CCCC[C@H]2C(=O)O[C@H]([C@H](C)C[C@@H]2CC[C@@H](OCCO)[C@H](OC)C2)CC(=O)[C@H](C)/C=C(\C)[C@@H](O)[C@@H](OC)C(=O)[C@H](C)C[C@H](C)/C=C/C=C/C=C/1C at 0.1 µM | SK-MEL-28: 48.7; WM451Lu: 78.3; SK-MEL-30: 71.6; MZ2-MEL: 74.9; COLO 829: 78.9; A101D: 81.9; WM3619: 73.1
* Oc1cc(-c2nc(-c3ccccc3)[nH]c2-c2ccncc2)ccc1Cl at 1 µM | SK-MEL-28: 29.6; WM451Lu: 48.1; SK-MEL-30: 75.8; MZ2-MEL: 93.6; COLO 829: 72.1; A101D: 66.9; 501mel: 52.4; WM3619: 78.4
* C#Cc1cccc(Nc2ncnc3cc(OCCOC)c(OCCOC)cc23)c1 at 4 µM | SK-MEL-28: 65.3; WM451Lu: 92.7; SK-MEL-30: 119; MZ2-MEL: 91.6; COLO 829: 75.0; A101D: 73.2; WM3619: 84.4
* C[As](C)SC[C@H](NC(=O)CC[C@H](N)C(=O)O)C(=O)NCC(=O)O at 2 µM | SK-MEL-28: 59.9; WM451Lu: 86.0; SK-MEL-30: 77.5; MZ2-MEL: 105; COLO 829: 73.7; A101D: 93.3; WM3619: 104

For reference, 2 entries once more:

| Drug | SK-MEL-28 | WM451Lu | SK-MEL-30 | MZ2-MEL | COLO 829 | A101D | 501mel | WM3619 |
|---|---|---|---|---|---|---|---|---|
| C[As](C)SC[C@H](NC(=O)CC[C@H](N)C(=O)O)C(=O)NCC(=O)O at 2 µM | 59.9 | 86.0 | 77.5 | 105 | 73.7 | 93.3 | - | 104 |
| OCCn1cc(-c2cnc3nnn(Cc4ccc5ncccc5c4)c3n2)cn1 at 5 µM | 99.6 | 93.2 | 94.5 | 126 | 99.9 | 119 | - | 104 |

From a melanoma drug combination screen (doi:10.1371/journal.pone.0140310); values rounded.